Data as given in PMC11904943.
These are yes or no findings as the source states them, for the method shown. In cells and extracts the contact can be indirect. Some binding calls cover weakened binding; strength is not graded here. Sequences can lack the tags named with a protein.

Target: T1, Flag-RBM12 (human) (UniProt Q9NTZ6)
T1 sequence: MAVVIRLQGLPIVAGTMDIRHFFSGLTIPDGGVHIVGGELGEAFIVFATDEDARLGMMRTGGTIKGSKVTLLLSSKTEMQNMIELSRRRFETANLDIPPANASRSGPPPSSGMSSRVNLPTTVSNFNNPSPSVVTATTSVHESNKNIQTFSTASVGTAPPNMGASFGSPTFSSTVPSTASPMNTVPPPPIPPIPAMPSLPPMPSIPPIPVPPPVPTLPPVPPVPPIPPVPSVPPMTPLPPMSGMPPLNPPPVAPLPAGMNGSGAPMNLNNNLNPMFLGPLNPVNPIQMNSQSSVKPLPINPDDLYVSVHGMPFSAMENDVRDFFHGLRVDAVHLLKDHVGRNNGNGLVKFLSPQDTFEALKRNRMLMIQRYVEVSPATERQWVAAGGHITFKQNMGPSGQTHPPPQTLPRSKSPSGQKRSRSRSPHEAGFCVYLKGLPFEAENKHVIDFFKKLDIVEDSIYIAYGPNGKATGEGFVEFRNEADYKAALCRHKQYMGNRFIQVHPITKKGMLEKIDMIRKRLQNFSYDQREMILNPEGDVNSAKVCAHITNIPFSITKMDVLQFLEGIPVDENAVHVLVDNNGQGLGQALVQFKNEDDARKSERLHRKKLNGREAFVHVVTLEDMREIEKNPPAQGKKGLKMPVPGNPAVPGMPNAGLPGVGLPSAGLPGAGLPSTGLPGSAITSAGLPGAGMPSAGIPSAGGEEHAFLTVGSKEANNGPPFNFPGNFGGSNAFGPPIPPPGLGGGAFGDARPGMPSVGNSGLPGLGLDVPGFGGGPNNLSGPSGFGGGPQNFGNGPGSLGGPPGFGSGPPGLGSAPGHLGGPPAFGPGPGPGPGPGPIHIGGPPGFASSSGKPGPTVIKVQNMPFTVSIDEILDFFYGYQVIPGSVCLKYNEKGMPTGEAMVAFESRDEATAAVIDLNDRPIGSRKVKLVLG
Assay: co-IP; HEK293T cells transfected with HA-WAC or HA-WACΔCC and Flag-RBM12; IP with anti-Flag M2 agarose beads, western blot with anti-HA

binding: binds
B1: HA-tagged wild-type WAC (protein, UniProt Q9BTA9 1-647)
chain: MVMYARKQQRLSDGCHDRRGDSQPYQALKYSSKSHPSSGDHRHEKMRDAGDPSPPNKMLRRSDSPENKYSDSTGHSKAKNVHTHRVRERDGGTSYSPQENSHNHSALHSSNSHSSNPSNNPSKTSDAPYDSADDWSEHISSSGKKYYYNCRTEVSQWEKPKEWLEREQRQKEANKMAVNSFPKDRDYRREVMQATATSGFASGMEDKHSSDASSLLPQNILSQTSRHNDRDYRLPRAETHSSSTPVQHPIKPVVHPTATPSTVPSSPFTLQSDHQPKKSFDANGASTLSKLPTPTSSVPAQKTERKESTSGDKPVSHSCTTPSTSSASGLNPTSAPPTSASAVPVSPVPQSPIPPLLQDPNLLRQLLPALQATLQLNNSNVDISKINEVLTAAVTQASLQSIIHKFLTAGPSAFNITSLISQAAQLSTQAQPSNQSPMSLTSDASSPRSYVSPRISTPQTNTVPIKPLISTPPVSSQPKVSTPVVKQGPVSQSATQQPVTADKQQGHEPVSPRSLQRSSSQRSPSPGPNHTSNSSNASNATVVPQNSSARSTCSLTPALAAHFSENLIKHVQGWPADHAEKQASRLREEAHNMGTIHMSEICTELKNLRSLVRVCEIQATLREQRILFLRQQIKELEKLKNQNSFMV
